These are yes or no findings as the source states them, for the method shown. In cells and extracts the contact can be indirect. Some entries that bind do so weakly or less than the wild type.
Columns and labels:
[1] = molecular target: Phosphoinositol-4-kinase IIIβ (PI4KIIIβ) (human (endogenous in BEAS-2B)) (UniProt Q9UBF8); assay: FRET or BRET; FRET in BEAS-2B cells infected with HRV for 1 h; STING with PI4KIIIβ
[2] = molecular target: Stromal interaction molecule 1 (STIM1) (human (endogenous in BEAS-2B)) (UniProt Q13586); assay: FRET or BRET; FRET in uninfected BEAS-2B cells; donor STING, acceptor STIM1
[3] = molecular target: T1, VAMP8 (human (endogenous in bronchial epithelial cells)) (UniProt Q9BV40); assay: FRET or BRET; FRET efficiency (E%) between STING, Ykt6, snap29 and Vamp8 in mock and HRV infected cells 6 h p.i.
T1 sequence: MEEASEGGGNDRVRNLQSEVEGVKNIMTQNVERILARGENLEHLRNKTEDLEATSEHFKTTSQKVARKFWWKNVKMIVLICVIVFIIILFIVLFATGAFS

Protein sequences, listed by entry. Tags and fused reporters are not part of them. Residues count along the entry.
UniProt Q9UBF8: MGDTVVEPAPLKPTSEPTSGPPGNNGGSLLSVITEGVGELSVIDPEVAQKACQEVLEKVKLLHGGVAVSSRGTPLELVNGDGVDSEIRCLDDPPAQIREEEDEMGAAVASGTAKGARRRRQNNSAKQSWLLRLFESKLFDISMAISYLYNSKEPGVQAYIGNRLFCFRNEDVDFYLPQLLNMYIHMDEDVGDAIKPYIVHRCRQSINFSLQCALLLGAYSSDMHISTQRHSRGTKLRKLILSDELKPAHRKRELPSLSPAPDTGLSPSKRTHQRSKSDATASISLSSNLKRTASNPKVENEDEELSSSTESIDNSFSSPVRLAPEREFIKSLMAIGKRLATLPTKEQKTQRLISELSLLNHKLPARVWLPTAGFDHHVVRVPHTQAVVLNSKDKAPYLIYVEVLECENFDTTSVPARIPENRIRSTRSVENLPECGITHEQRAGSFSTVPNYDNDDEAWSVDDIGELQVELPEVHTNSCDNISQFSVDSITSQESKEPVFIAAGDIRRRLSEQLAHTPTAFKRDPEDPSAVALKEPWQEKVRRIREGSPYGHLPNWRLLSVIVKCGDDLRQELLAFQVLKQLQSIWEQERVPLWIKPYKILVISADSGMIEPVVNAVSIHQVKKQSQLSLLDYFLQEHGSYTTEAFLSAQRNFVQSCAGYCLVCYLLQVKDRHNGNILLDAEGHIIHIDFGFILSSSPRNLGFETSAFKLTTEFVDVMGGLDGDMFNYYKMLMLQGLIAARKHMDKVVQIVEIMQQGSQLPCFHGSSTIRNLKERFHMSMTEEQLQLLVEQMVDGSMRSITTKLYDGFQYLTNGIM
UniProt Q13586, residues 23-685: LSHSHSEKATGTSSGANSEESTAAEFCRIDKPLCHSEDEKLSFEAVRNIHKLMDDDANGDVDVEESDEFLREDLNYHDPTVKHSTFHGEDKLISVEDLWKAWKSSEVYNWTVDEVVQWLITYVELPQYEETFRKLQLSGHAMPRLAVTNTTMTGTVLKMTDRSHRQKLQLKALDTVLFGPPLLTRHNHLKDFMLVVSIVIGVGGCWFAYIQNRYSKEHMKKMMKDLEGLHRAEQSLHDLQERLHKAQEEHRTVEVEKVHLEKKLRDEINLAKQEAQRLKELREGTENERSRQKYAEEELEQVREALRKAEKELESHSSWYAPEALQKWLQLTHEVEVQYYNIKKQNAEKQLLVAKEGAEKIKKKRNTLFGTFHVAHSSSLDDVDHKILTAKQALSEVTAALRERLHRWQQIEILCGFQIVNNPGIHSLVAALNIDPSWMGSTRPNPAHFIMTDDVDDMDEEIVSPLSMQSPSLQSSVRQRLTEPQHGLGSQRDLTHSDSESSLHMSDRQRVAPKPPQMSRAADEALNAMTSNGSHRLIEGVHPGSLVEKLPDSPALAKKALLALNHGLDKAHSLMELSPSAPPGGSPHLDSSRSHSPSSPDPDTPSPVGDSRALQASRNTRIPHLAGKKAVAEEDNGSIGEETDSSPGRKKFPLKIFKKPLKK
UniProt O95721: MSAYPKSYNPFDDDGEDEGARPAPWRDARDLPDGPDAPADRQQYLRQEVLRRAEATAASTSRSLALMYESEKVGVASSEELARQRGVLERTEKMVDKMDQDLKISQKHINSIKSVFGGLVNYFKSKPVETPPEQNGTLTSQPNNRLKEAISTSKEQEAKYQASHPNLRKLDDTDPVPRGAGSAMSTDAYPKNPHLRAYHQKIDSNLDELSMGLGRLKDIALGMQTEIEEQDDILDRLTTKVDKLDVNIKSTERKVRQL
UniProt Q86WV6: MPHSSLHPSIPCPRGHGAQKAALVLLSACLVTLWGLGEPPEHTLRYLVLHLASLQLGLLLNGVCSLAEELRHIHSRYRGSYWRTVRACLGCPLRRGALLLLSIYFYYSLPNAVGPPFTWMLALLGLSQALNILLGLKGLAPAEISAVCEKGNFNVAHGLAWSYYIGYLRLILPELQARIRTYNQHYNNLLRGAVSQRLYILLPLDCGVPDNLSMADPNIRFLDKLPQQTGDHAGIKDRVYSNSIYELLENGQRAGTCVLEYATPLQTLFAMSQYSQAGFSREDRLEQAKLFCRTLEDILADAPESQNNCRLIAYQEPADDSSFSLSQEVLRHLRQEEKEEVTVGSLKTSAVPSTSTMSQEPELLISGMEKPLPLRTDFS

[4] = molecular target: SNAP29 (human (endogenous in bronchial epithelial cells)) (UniProt O95721); assay: as above
[5] = molecular target: T2, Ykt6 (human (endogenous in bronchial epithelial cells)) (UniProt O15498); assay: as above
T2 sequence: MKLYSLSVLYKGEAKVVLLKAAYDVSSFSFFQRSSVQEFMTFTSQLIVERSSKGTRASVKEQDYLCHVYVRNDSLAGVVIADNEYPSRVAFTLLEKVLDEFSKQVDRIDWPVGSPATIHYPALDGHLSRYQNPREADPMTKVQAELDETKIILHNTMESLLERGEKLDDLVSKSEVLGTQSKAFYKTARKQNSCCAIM

Measured: binding

Stimulator of interferon genes (STING) (from UniProt Q86WV6 1-379)
binds: all assays above
